Experiment [1] addresses JAK2 (mouse (endogenous in murine macrophages)) (UniProt Q62120). Kind of experiment: co-IP; anti-JAK2 immunoprecipitate of MØ lysates, blot for SHP-1; cells with/without the cell permeable crosslinker DSS; steady state and 12 hr L. donovani infected MØs with 100 U/ml rIFNγ for 3 min.
The target in experiment [2] is T1, biotinylated recombinant murine IFNγ (mouse) (UniProt P01580).
T1 sequence (chain, biotin (EZ linked N-hydroxysulfosuccinimide-biotin)): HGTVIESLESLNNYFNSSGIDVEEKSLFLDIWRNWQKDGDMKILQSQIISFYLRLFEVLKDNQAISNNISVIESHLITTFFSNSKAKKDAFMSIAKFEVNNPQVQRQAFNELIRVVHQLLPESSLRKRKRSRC
Kind of experiment: pull-down; biotinylated IFNγ (0.5 ng/ml, 3 min, 37°C) on RAW 264.7 cells, captured on streptavidin-agarose from pooled raft and non-raft fractions; blot for IFNγR1 and IFNγR2; complexes boiled in 1% SDS, re-precipitated with anti-pTyr and blotted for IFNγR1, JAK2, JAK1 and STAT1; only the target purified.

Protein sequences, listed by entry. Tags and fused reporters are not part of them.
UniProt Q62120: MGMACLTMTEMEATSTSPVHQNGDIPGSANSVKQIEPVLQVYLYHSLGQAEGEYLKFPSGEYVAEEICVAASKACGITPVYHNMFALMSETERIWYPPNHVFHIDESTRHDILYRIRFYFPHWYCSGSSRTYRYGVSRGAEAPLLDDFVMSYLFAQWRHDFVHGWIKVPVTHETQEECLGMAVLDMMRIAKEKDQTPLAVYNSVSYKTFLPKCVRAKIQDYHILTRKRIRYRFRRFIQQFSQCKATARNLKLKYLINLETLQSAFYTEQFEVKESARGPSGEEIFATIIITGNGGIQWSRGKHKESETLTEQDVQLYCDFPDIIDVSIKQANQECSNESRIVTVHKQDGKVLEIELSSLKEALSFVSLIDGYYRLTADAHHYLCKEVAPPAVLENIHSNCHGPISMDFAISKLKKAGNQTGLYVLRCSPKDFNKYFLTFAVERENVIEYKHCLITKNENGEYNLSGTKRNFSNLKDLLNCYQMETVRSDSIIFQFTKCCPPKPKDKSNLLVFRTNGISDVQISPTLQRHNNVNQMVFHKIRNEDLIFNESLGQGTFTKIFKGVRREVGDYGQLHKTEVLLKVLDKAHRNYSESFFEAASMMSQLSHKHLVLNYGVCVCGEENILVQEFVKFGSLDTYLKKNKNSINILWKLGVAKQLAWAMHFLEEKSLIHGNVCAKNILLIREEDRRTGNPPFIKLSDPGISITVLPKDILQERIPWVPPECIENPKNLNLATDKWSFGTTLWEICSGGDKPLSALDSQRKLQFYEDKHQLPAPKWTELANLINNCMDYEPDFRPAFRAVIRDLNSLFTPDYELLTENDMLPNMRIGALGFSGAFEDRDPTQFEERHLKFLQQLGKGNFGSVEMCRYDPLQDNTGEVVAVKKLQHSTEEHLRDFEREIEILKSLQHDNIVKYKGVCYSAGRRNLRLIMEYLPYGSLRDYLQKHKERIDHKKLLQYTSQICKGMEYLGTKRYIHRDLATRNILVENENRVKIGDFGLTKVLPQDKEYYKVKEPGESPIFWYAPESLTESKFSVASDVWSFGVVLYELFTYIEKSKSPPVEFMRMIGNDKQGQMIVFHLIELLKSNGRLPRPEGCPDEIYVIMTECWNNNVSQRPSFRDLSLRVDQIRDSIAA
UniProt P29351: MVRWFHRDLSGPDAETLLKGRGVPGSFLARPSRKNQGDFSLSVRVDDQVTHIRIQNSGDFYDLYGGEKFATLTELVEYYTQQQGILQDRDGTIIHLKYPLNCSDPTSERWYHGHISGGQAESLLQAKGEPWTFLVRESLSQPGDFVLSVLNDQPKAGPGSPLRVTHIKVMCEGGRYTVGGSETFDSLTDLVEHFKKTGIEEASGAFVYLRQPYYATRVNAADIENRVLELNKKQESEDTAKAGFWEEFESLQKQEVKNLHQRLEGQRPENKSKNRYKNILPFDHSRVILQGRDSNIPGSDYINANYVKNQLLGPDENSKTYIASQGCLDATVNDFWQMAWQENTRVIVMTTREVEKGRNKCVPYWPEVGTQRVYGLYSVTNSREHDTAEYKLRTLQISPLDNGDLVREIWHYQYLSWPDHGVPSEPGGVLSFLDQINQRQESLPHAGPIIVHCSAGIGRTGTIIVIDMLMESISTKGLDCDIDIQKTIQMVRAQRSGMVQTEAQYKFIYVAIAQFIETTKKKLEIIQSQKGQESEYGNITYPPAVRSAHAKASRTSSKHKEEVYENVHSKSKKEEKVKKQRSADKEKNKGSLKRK
UniProt P52332: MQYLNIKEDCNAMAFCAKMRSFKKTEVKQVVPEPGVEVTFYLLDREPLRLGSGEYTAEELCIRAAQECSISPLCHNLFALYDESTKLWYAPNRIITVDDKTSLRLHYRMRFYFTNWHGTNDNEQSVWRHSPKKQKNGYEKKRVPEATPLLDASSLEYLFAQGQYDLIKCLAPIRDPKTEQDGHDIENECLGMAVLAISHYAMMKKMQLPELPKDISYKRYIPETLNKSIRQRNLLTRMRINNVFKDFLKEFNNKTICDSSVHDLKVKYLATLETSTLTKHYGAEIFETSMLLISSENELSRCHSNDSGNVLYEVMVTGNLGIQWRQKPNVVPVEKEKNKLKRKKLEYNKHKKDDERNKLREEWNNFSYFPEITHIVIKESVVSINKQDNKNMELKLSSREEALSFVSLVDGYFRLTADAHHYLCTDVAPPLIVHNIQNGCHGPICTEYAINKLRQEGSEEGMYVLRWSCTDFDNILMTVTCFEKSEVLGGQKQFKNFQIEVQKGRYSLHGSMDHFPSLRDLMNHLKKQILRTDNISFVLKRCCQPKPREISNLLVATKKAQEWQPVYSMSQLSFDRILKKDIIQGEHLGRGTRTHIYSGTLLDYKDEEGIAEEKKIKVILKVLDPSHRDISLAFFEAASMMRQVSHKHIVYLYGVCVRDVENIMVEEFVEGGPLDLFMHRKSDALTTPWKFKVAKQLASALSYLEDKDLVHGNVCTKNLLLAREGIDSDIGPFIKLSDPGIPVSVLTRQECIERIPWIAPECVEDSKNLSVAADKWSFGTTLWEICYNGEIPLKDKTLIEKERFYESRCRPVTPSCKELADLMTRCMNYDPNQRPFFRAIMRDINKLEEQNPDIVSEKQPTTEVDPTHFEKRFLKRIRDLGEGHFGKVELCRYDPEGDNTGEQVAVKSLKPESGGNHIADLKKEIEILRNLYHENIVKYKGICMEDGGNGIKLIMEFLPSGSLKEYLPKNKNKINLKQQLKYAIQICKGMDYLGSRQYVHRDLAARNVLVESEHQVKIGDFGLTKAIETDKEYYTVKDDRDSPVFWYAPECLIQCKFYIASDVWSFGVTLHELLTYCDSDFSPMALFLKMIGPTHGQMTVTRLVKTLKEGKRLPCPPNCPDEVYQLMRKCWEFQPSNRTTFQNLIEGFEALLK

For experiment [3], the target named is T2, IFNγ receptor subunit 1 (IFNγR1) (mouse (endogenous in RAW 264.7)) (UniProt P15261).
T2 sequence: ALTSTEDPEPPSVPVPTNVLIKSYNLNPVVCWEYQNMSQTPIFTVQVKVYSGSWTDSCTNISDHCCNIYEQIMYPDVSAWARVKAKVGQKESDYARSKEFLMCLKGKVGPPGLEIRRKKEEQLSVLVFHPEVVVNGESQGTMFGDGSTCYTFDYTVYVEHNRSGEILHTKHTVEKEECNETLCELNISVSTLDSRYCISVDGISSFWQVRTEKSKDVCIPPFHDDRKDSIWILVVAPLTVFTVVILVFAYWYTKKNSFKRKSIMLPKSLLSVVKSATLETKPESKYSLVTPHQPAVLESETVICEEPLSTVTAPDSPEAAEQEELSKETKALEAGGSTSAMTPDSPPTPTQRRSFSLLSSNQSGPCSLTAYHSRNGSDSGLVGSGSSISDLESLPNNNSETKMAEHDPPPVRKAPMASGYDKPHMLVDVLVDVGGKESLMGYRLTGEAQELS
The experiment can be described thus: radioligand binding; saturation binding of 125I-IFNγ (5-800 pM) to 2×10^7 cells per ml, 180 min at 4°C, RPMI with 2% fetal bovine serum; nonspecific binding with 200-fold excess of unlabeled ligand; one-site hyperbola; normal and L. donovani infected MØs; only the binder purified.

No constants are given. Whether binding was seen depends on the method and setting. For some assays here: In cells and extracts the contact can be indirect. Some results given as binding are weak or reduced against the parent protein; the word gives no strength.

“SHP-1 (from UniProt P29351 1-595) (enzyme)”: in experiment [1], the binding result is listed as “binds”. As for “phosphorylated (activated) JAK1 (from UniProt P52332 1-1153) (enzyme)”, in experiment [2], the binding result is given as “binds”. Still for that read-out and setting: in the case of “phosphorylated (activated) JAK2 (from UniProt Q62120 1-1132) (enzyme)” it was “binds”.

B1: 125I-labeled murine IFNγ (ligand, UniProt P01580 23-155)
chain: HGTVIESLESLNNYFNSSGIDVEEKSLFLDIWRNWQKDGDMKILQSQIISFYLRLFEVLKDNQAISNNISVIESHLITTFFSNSKAKKDAFMSIAKFEVNNPQVQRQAFNELIRVVHQLLPESSLRKRKRSRC
modifications: 125I (radioiodination with chloramine-T)
B1: the binding entry in experiment [3] is “binds”.

B2: IFNγ receptor subunit 1 (IFNγR1) (receptor, UniProt P15261 26-477)
chain: ALTSTEDPEPPSVPVPTNVLIKSYNLNPVVCWEYQNMSQTPIFTVQVKVYSGSWTDSCTNISDHCCNIYEQIMYPDVSAWARVKAKVGQKESDYARSKEFLMCLKGKVGPPGLEIRRKKEEQLSVLVFHPEVVVNGESQGTMFGDGSTCYTFDYTVYVEHNRSGEILHTKHTVEKEECNETLCELNISVSTLDSRYCISVDGISSFWQVRTEKSKDVCIPPFHDDRKDSIWILVVAPLTVFTVVILVFAYWYTKKNSFKRKSIMLPKSLLSVVKSATLETKPESKYSLVTPHQPAVLESETVICEEPLSTVTAPDSPEAAEQEELSKETKALEAGGSTSAMTPDSPPTPTQRRSFSLLSSNQSGPCSLTAYHSRNGSDSGLVGSGSSISDLESLPNNNSETKMAEHDPPPVRKAPMASGYDKPHMLVDVLVDVGGKESLMGYRLTGEAQELS
As for B2, the binding entry in experiment [2] was “binds”.

The values are drawn from publication PMC3169561, “Restoration of IFNγR Subunit Assembly, IFNγ Signaling and Parasite Clearance in Leishmania donovani Infected Macrophages: Role of Membrane Cholesterol” (PLoS Pathogens, 2011).
